Experimental data: PubChem BioAssay AID2685 (National Center for Advancing Translational Sciences (NCATS), 2010)
Values joined by “and” are separate entries in the source; they are usually repeats but may differ in a detail not shown here. Identical values can stand only once. The list shows a part of the results. Further columns of the screen follow, without active or inactive calls. Compounds called inactive in the main read-out are mostly missing here. Words in brackets tell the shape of the fitted curve; partial curves, single points and poor fits give uncertain potencies.

Assay: qHTS Assay for Lipid Storage Modulators in Drosophila S3 Cells;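 as to cell number change: cells counted by Cell Tracker Red CMTPX staining in the red channel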
Conditions: BODIPY lipid droplet fluorescence, 18-24 h; for cell number change: measured here: cell count max response, cells fed with added oleic acid
In short: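 Laser-scanning cytometry quantifies lipid droplet accumulation (500–530 nm total intensity; droplet/cell object ratio) in oleic acid-fed (400 uM added) Drosophila S3 cells treated with a concentration series. 20 uM Triacsin C defined 100% inhibition.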

[1] = measured here: lipid fluorescence (Fed channel) AC50, cells fed with added oleic acid
[2] = measured here: cell number channel AC50, cells fed with added oleic acid

Row | Compound | cell number change [%] | AC50 [1] | AC50 [2]
1 | O=C(c1ccco1)N1N=C(c2ccc(Br)cc2)CC1c1ccco1 (stereo unspecified) | -17.9 | 6.51 µM [rising, partial curve, poor fit] | –
2 | CC(=O)OCC(=O)[C@@]12OC(C)(C)O[C@@H]1CC1C3C[C@H](F)C4=CC(=O)C=CC4(C)[C@@]3(F)C(O)CC12C (stereo partly specified) | 28.4 | 0.651 µM [rising, full curve, poor fit] | –
3 | CCOc1ccc(-c2noc(CCC(=O)NCCc3ccccc3)n2)cc1OC | -23.6 | 32.6 µM [falling, single point] | –
4 | N=c1c2c(-c3ccccc3)c(-c3ccccc3)n(Cc3ccco3)c2ncn1CCCN1CCOCC1 | -5.2 | 6.51 µM [rising, single point] | –
5 | O=C(NCc1ccc(Cl)cc1)c1cc2c(nc3sccn32)s1 | -7.64 | 3.26 µM [rising, single point] | –
6 | COc1ccccc1NC(=S)NNC(=O)c1cc(C)n(C)n1 | 83.9 | 1.3 µM [rising, full curve] | 1.03 µM [rising, full curve]
7 | COc1ccc(OCC(=O)Nc2ccc(N3CCOCC3)c(Cl)c2)cc1 | 114 | – | 18.4 µM [rising, single point]
8 | COc1ccc(OCc2n(CC(=O)OC3CC(C)CCC3C(C)C)c3ccccc3[n+]2C)cc1 (stereo unspecified) | -62.2 | 23.1 µM [falling, partial curve] | 8.2 µM [falling, partial curve, poor fit]
9 | Cn1c(=O)n(Cc2ccccc2F)c(=O)c2c1nc1n2CCCN1CCc1ccccc1 | 69.4 | 2.06 µM [rising, partial curve] | 29.1 µM [rising, single point]
10 | CCOc1cccc(C(=O)N2CCCCC2c2cccnc2)c1 (stereo unspecified) | – | 0.13 µM [rising, full curve, poor fit] | –
11 | CCN(CC)c1ccc(NC(=O)CN2C(=O)CSc3ncccc32)c(C)c1 | -79.2 | 10.3 µM [falling, partial curve] | 14.6 µM [falling, partial curve]
12 | COc1ccc(OC)c(/C=C2\SC(=S)N(NS(=O)(=O)c3ccc(C)cc3)C2=O)c1 | -16.1 | 5.17 µM [falling, full curve, poor fit] | –
13 | O=c1cc(CSc2ccc(Cl)cc2)nc(-c2ccccn2)[nH]1 | -27.2 | 18.4 µM [falling, single point] | –
14 | COCCCC/C(=N\OCCN)c1ccc(C(F)(F)F)cc1 | – | 920 nM [falling, full curve, poor fit] and 29.1 µM [rising, single point] | 32.6 µM [rising, single point]
15 | COc1ccc(-c2noc(CCN3C(=O)c4ccccc4C3=O)n2)cc1OC | – | 1.84 µM [rising, partial curve] | 1.84 µM [rising, partial curve]
16 | COc1ccccc1OCCCCNCCO | 5 | 3.66 µM [falling, full curve] | –
17 | CCOC(=O)C1CCCN(C(=O)CN(c2ccc(OC)cc2)S(=O)(=O)c2c(C)noc2C)C1 (stereo unspecified) | 35.9 | 20.6 µM [rising, single point] | 11.6 µM [rising, single point]
18 | CCCC(c1nnnn1Cc1cccs1)N1CCN(C2CCCC2)CC1 (stereo unspecified) | 12.1 | 4.61 µM [falling, single point] | –
19 | CC1=NN(C(N)=S)C(=O)C1N=Nc1ccc(C)c(Br)c1 (stereo unspecified) | -61.5 | 1.46 µM [falling, partial curve] | 1.64 µM [falling, partial curve, poor fit]
20 | Cc1ccc(C(CC(=O)c2ccc(Cl)cc2)C(=O)O)cc1 (stereo unspecified) | – | 0.00461 µM [falling, full curve, poor fit] | –
21 | COc1ccccc1NCC(=O)N/N=C(\C)c1ccc(Br)s1 | -41 | 0.92 µM [rising, partial curve] | 29.1 µM [falling, single point]
22 | CCc1ccccc1NC(=S)N(CCN(C)C)Cc1cccs1 | 17.4 | 0.00517 µM [rising, full curve, poor fit] | –
23 | CCOc1cc(S(=O)(=O)NCCc2ccccc2C)c(OCC)cc1-n1cnnn1 | -4.53 | 2.91 µM [rising, single point] | –
24 | CCc1cccc(CC)c1NC(=O)CN1CCN(c2ccccc2)CC1 | 0.214 | 0.116 µM [rising, full curve, poor fit] | –
25 | C=CCOC(=O)C(C#N)c1nc2ccccc2nc1N1CCN(c2ccccc2OCC)CC1 (stereo unspecified) | -48 | 18.4 µM [falling, single point] | 18.4 µM [falling, single point]
26 | Cc1cc(C)c(C)c(S(=O)(=O)N2CCC(C(=O)N3CCCCCCC3)CC2)c1C | -43.6 | 0.651 µM [falling, partial curve, poor fit] | 5.8 µM [falling, full curve, poor fit]
27 | Cc1ccc(S(=O)(=O)c2c(C)cc(C)nc2N2CCCCC2)cc1 | 13.8 | 3.26 µM [falling, partial curve, poor fit] | 4.11 µM [falling, single point]

Row | Compound | cell number change [%] | AC50 [1] | AC50 [2]
28 | Cc1nn(CCc2nn[nH]n2)c2nc(-c3ccc(C4CCCCC4)cc3)cc(C(F)(F)F)c12 | -46.2 | – | 29.1 µM [falling, single point]
29 | Cc1cc(C)c(OCCOCCN2CCNCC2)c(C)c1 | -46.1 | 3.66 µM [falling, partial curve] | 2.31 µM [falling, partial curve, poor fit]
30 | COc1cccc(C2=CC(=O)C[C@H](c3ccc(Cl)cc3)C2)c1 | -0.963 | 23.1 µM [rising, partial curve] | –
31 | CCc1nn(C(C)C(=O)NCCc2ccccc2)c(=O)c2cc3occc3n12 (stereo unspecified) | -32.5 | – | 32.6 µM [falling, single point]
32 | CC(C)n1cc(/C=C(\C#N)S(=O)(=O)c2ccccc2)c2ccccc21 | 252 | 6.51 µM [falling, single point] | 29.1 µM [rising, single point]
33 | COc1ccc(NC(=O)C(=O)c2cn(CC(=O)N3CCCC3)c3ccccc23)c(OC)c1 | 13.4 | – | –
34 | Clc1cccc(OCCN2CCCC2)c1 | 6.88 | 8.2 µM [rising, partial curve] | –
35 | CN(/N=C/c1ccc([N+](=O)[O-])o1)c1ccccc1 | -33.2 | – | 20.6 µM [falling, single point]
36 | CCCOC(=O)c1ccc(NC(=O)Cc2cccs2)cc1 | -13.9 | – | 2.06 µM [falling, single point]
37 | Cc1ccc(CNC(=O)CCN2C(=O)[C@@H]3Cc4ccccc4CN3C2=O)cc1 | 21.5 | 0.58 µM [rising, single point] | –
38 | NC(=O)[C@@H]1CCCN1Cc1nc(Cc2cccc(C(F)(F)F)c2)no1 | 22.3 | 32.6 µM [rising, partial curve, poor fit] | –
39 | CCOC(=O)COc1cccc2c(=O)n(CC(=O)NCCc3ccccc3)ccc12 | 3.23 | 0.366 µM [falling, partial curve, poor fit] | –
40 | COc1ccc(CN2CCNC(=O)C2CC(=O)N(C)CC2CCOCC2)cc1OC (stereo unspecified) | 8.4 | – | –
41 | CCC1C(=O)NCCN1C(=O)c1cccc(OC2CCN(S(=O)(=O)N(C)C)CC2)c1 (stereo unspecified) | 4.29 | 8.2 µM [falling, partial curve] | –
42 | Clc1ccc(CN2CC[C@H]3C=CCc4cccc(c43)C2)cc1 | -40.2 | 0.146 µM [falling, single point] | 29.1 µM [falling, single point]
43 | C[C@]12CCC(=O)C=C1CC[C@@H]1[C@@H]2C(=O)C[C@@]2(C)[C@H]1CC[C@]2(O)C(=O)CO | 35.7 | 29.1 µM [rising, single point] | 29.1 µM [rising, single point]
44 | Cc1cc(OCc2cn3cccnc3n2)ccc1Cl | -4.64 | – | –
45 | Cc1cc(C)n2nc(SCN3C(=O)c4ccccc4C3=O)nc2n1 | -16.2 | – | 0.146 µM [rising, full curve, poor fit]
46 | CCOc1cc(C(=O)N2CCN(C/C=C/c3ccccc3)CC2)cc(OCC)c1OCC | 48.3 | 0.651 µM [falling, single point] | 29.1 µM [rising, single point]
47 | COc1ccc(N2CCN(C(=S)NC(C)c3ccccc3)CC2)cc1 (stereo unspecified) | 24.6 | – | –
48 | CCC(=O)NC(=S)Nc1cccc(Cl)c1N1CCCC1 | 90.5 | – | 16.4 µM [rising, partial curve]
49 | COc1ccc(N(C(=O)c2ccccc2OC(C)=O)C(C)C2CC2)cc1 (stereo unspecified) | 4.58 | 3.26 µM [rising, single point] | –
50 | N#CN(CC(N)=O)c1nc(N2CCCCC2)nc(N2CCCCC2)n1 | -11.1 | 16.4 µM [falling, single point] | –
51 | Clc1ccc2[nH]c(-c3ccccc3)cc2c1 | -8.97 | 0.58 µM [falling, full curve, poor fit] | –
52 | COc1ccc2ccc3c(c2c1)N=C[C@]1(O3)N(C)c2ccccc2C1(C)C | -87.6 | 29.1 µM [falling, single point] | 20.6 µM [falling, partial curve]
53 | CC1(c2ccc([N+](=O)[O-])cc2)CC(C)(C)N(C(=O)c2ccccc2)c2ccccc21 (stereo unspecified) | 8.12 | – | –
54 | COc1ccc(S(=O)(=O)N(C)CC(=O)NCCC2=CCCCC2)cc1C | – | 6.51 µM [falling, single point] | –
